Experimental data published in patent US20200397001A1, “CONTROL OF PESTS OF SOYBEAN PLANTS WITH MESOIONIC COMPOUNDS” (BASF SE, priority 2018, published 2020).
Some results were stated once for a whole list of compounds, not compound by compound.

How the values were obtained:
Type in all cases: in vivo
[1] = system: Eysarcoris aeneus; assay: Forest shield bug spray test on peanuts and soybean seeds in cups; conditions: 100 ppm, adults on peanuts and soybean seeds, after 5 days
[2] = system: Heliothis virescens; assay: Tobacco budworm 96-well microtiter plate diet test; conditions: 2500 ppm; sprayed onto insect diet; 5 days
[3] = system: Nezara viridula; assay: Green soldier stink bug spray test on soybean pods in Petri dishes; conditions: 300 ppm, late 3rd instar N. viridula on soybean pods, after 5 days
[4] = system: Euschistus heros; assay: Brown stink bug spray test on fresh bean pods in cups; conditions: 100 ppm, adults on fresh bean pods, after 5 days

SMILES	mortality in comparison with untreated controls [1]	egg and larval mortality in comparison with untreated controls [2]	mortality in comparison with untreated controls [3]	mortality in comparison with untreated controls [4]
N#CCCn1c(=O)c(-c2cccc(C(F)(F)F)c2)c([O-])[n+]2ccccc12 [Compound C-2]	at least 75%	at least 75%	at least 75%	at least 75%
N#CCCn1c(=O)c(-c2ccccc2)c([O-])[n+]2ccccc12 [Compound C-3]	at least 75%	–	at least 75%	at least 75%
N#CCCn1c(=O)c(-c2cc(Cl)cc(Cl)c2)c([O-])[n+]2ccccc12 [Compound C-4]	at least 75%	at least 75%	at least 75%	at least 75%
COc1cccc(-c2c([O-])[n+]3ccccc3n(CCC#N)c2=O)c1 [Compound C-5]	at least 75%	–	at least 75%	at least 75%
Cc1cccc(-c2c([O-])[n+]3ccccc3n(CCC#N)c2=O)c1 [Compound C-6]	at least 75%	at least 75%	at least 75%	at least 75%
N#CCCn1c(=O)c(-c2cccc(OC(F)(F)F)c2)c([O-])[n+]2ccccc12 [Compound C-7]	at least 75%	–	at least 75%	at least 75%
N#CCCn1c(=O)c(-c2cc(C3CC3)cc(C(F)(F)F)c2)c([O-])[n+]2ccccc12 [Compound C-8]	–	–	–	at least 75%
N#CCCn1c(=O)c(-c2ccc(F)cc2)c([O-])[n+]2ccccc12 [Compound C-9]	–	–	–	at least 75%
N#CCCn1c(=O)c(-c2cccc(Br)c2)c([O-])[n+]2ccccc12 [Compound C-10]	at least 75%	–	–	–
N#CCCn1c(=O)c(-c2cccc(Cl)c2)c([O-])[n+]2ccccc12 [Compound C-11]	–	–	–	at least 75%
